Laboratory results published in PMC12620962.
No constants are given. Whether binding was seen depends on the method and setting. In cells and extracts the contact can be indirect.

Target: T1, phosphodiesterase 3A (PDE3A), endogenous in HEL cells (human (endogenous in HEL)), Q14432
T1 chain: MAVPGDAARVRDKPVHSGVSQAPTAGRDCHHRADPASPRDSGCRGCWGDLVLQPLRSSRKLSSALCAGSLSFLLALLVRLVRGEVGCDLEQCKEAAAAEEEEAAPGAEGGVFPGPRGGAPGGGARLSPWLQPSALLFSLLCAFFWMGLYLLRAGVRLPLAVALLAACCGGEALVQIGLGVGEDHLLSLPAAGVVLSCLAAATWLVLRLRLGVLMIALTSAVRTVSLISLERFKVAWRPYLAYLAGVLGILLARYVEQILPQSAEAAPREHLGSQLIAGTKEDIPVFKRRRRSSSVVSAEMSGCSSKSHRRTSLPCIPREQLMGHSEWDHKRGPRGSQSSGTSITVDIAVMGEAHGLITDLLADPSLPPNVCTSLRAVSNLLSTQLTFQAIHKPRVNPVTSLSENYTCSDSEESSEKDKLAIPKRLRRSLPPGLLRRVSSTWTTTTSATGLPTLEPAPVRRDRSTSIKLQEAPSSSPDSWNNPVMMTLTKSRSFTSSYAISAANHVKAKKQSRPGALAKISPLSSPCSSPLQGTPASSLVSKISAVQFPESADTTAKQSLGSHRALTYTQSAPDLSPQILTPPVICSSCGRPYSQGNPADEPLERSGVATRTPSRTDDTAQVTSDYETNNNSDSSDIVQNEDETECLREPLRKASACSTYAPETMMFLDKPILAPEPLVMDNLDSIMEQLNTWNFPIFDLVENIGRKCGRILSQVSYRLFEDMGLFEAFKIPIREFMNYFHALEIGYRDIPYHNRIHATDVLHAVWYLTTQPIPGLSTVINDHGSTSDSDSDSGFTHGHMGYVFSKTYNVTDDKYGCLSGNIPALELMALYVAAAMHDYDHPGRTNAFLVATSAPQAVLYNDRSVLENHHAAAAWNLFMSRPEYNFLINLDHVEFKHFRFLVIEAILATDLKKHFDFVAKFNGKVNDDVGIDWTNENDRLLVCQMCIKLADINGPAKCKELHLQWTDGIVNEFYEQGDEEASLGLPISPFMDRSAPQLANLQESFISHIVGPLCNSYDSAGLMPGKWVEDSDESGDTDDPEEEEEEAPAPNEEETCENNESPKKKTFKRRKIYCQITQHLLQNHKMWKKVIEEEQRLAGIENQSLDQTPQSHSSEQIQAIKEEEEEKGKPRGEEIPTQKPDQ
Test: co-IP; HEL cells treated with DMSO or BAY 2666605 (1 or 10 umol/L) for 24 hours; lysates incubated overnight at 4°C with anti-PDE3A rabbit polyclonal antibody or rabbit IgG control, Protein G Sepharose, four washes with NP-40 lysis buffer; immunoblot for SLFN12, PDE3A, then reprobed for PDE3B
Details: remark: other sources report otherwise

binding: no binding
B1: phosphodiesterase 3B (PDE3B), endogenous in HEL cells, Q13370 1-1112 (enzyme)
chain: MRRDERDAKAMRSLQPPDGAGSPPESLRNGYVKSCVSPLRQDPPRGFFFHLCRFCNVELRPPPASPQQPRRCSPFCRARLSLGALAAFVLALLLGAEPESWAAGAAWLRTLLSVCSHSLSPLFSIACAFFFLTCFLTRTKRGPGPGRSCGSWWLLALPACCYLGDFLVWQWWSWPWGDGDAGSAAPHTPPEAAAGRLLLVLSCVGLLLTLAHPLRLRHCVLVLLLASFVWWVSFTSLGSLPSALRPLLSGLVGGAGCLLALGLDHFFQIREAPLHPRLSSAAEEKVPVIRPRRRSSCVSLGETAASYYGSCKIFRRPSLPCISREQMILWDWDLKQWYKPHYQNSGGGNGVDLSVLNEARNMVSDLLTDPSLPPQVISSLRSISSLMGAFSGSCRPKINPLTPFPGFYPCSEIEDPAEKGDRKLNKGLNRNSLPTPQLRRSSGTSGLLPVEQSSRWDRNNGKRPHQEFGISSQGCYLNGPFNSNLLTIPKQRSSSVSLTHHVGLRRAGVLSSLSPVNSSNHGPVSTGSLTNRSPIEFPDTADFLNKPSVILQRSLGNAPNTPDFYQQLRNSDSNLCNSCGHQMLKYVSTSESDGTDCCSGKSGEEENIFSKESFKLMETQQEEETEKKDSRKLFQEGDKWLTEEAQSEQQTNIEQEVSLDLILVEEYDSLIEKMSNWNFPIFELVEKMGEKSGRILSQVMYTLFQDTGLLEIFKIPTQQFMNYFRALENGYRDIPYHNRIHATDVLHAVWYLTTRPVPGLQQIHNGCGTGNETDSDGRINHGRIAYISSKSCSNPDESYGCLSSNIPALELMALYVAAAMHDYDHPGRTNAFLVATNAPQAVLYNDRSVLENHHAASAWNLYLSRPEYNFLLHLDHVEFKRFRFLVIEAILATDLKKHFDFLAEFNAKANDVNSNGIEWSNENDRLLVCQVCIKLADINGPAKVRDLHLKWTEGIVNEFYEQGDEEANLGLPISPFMDRSSPQLAKLQESFITHIVGPLCNSYDAAGLLPGQWLEAEEDNDTESGDDEDGEELDTEDEEMENNLNPKPPRRKSRRRIFCQLMHHLTENHKIWKEIVEEEEKCKADGNKLQVENSSLPQADEIQVIEEADEEE
